Laboratory results reported in patent US10117430B2, “Malononitrile compounds for controlling animal pests” (BASF SE, priority 2012, dated 2018).
Some entries share one result that the patent states for a list of compounds.

Test system: Green Peach Aphid (Myzus persicae)
Test: B.3 Green peach aphid systemic test, artificial diet under membrane
Format: in vivo
Conditions: concentration of the test solution 2500 mg/L, 3 days
Excerpt: B.3 Green Peach Aphid (Myzus persicae)
For evaluating control of green peach aphid (Myzus persicae) through systemic means the test unit consisted of 96-well-microtiter plates containing liquid artificial diet under an artificial membrane. The compounds were formulated using a solution containing 75% v/v water and 25% v/v DMSO. Different concentrations of formulated compounds were pipetted into the aphid diet, using a custom built pipetter, at two replications. After application, 5-8 adult aphids were placed on the artificial membrane inside the microtiter plate wells. The aphids were then allowed to suck on the treated aphid diet and incubated at about 23±1° C. and about 50±5% relative humidity for 3 days. Aphid mortality and fecundity was then visually assessed.

In the case of `N#CC(C#N)(Cc1ccc(F)nc1F)c1ccc2c(c1)OCO2` [II-57], the mortality is reported as “at least 75%”.
